Test results as given in PMC4479000.

Protein sequences, listed by entry. Tags and fused reporters are not part of them. Lines headed by an entry give the natural chain unless they say otherwise; changes in a name come on top.
UniProt Q04721: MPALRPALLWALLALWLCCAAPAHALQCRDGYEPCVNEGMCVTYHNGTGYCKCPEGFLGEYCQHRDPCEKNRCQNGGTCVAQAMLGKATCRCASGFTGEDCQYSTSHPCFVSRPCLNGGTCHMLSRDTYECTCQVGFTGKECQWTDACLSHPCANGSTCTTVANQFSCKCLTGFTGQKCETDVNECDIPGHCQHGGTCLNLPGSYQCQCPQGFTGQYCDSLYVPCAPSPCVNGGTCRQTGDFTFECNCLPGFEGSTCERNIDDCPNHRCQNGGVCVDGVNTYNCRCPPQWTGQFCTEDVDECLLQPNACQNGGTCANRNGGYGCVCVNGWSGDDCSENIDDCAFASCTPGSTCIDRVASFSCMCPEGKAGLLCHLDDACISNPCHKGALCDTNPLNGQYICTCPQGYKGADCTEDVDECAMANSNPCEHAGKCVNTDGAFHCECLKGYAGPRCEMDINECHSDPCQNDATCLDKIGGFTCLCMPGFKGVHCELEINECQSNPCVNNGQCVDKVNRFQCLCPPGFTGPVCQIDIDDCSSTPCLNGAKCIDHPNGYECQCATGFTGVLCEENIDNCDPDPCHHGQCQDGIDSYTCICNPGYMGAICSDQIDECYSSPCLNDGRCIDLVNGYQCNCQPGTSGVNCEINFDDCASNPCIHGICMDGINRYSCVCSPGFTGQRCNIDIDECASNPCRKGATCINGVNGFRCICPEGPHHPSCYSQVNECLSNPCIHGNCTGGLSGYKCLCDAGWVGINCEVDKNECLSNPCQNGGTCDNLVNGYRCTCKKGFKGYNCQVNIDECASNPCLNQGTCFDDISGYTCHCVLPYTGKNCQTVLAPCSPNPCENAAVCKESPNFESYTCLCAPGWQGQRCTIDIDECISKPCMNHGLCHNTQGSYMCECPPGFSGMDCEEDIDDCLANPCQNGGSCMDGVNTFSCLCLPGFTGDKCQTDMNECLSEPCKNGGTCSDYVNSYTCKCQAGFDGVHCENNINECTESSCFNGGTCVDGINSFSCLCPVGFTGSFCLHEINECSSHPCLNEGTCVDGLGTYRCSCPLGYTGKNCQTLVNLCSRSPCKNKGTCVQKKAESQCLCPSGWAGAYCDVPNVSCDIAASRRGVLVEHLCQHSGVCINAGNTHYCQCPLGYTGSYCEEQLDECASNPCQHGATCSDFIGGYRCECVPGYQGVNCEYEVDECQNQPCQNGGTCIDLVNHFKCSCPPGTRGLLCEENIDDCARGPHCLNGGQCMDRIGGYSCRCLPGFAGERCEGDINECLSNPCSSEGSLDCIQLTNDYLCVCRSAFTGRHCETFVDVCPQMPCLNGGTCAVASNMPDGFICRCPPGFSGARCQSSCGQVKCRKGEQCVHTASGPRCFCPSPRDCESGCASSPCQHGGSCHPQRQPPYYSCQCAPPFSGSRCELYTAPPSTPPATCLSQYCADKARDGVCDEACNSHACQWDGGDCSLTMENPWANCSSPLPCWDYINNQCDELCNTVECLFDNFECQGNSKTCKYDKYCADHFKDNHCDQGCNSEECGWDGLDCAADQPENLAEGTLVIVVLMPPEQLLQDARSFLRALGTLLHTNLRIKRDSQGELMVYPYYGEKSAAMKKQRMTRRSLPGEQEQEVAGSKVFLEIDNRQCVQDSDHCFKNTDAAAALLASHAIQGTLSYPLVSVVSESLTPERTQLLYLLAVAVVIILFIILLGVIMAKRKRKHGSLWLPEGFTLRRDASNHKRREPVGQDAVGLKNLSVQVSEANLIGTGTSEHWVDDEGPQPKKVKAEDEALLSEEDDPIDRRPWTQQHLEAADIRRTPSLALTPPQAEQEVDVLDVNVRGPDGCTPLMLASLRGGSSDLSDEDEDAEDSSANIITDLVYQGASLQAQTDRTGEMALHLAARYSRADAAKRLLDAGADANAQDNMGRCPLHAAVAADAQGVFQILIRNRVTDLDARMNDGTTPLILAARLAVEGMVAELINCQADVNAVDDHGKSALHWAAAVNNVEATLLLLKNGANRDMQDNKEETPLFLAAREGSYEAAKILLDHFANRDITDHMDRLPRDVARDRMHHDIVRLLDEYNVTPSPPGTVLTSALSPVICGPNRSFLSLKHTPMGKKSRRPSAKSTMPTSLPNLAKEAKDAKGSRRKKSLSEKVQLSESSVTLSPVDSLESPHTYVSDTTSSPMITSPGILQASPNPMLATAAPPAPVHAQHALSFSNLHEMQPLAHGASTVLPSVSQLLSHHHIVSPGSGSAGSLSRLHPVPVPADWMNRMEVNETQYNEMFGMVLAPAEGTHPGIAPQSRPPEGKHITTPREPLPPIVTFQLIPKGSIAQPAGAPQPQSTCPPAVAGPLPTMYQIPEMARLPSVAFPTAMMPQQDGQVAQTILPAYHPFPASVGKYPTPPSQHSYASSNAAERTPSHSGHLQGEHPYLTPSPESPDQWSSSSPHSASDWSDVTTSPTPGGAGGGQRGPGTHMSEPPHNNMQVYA

Experiments:
[1] = target: T1, Gal4 DNA-binding domain (BD) fused C8orf4 (UniProt Q9NR00); assay: two-hybrid; Matchmaker Gold Yeast Two-Hybrid system; BD-C8orf4 (pGBKT7) and AD-N2ICD or AD-N2ECD (pGADT7) co-transformed into AH109; SD plate lacking adenine, histidine, tryptophan and leucine; beta-galactosidase activity
T1 sequence: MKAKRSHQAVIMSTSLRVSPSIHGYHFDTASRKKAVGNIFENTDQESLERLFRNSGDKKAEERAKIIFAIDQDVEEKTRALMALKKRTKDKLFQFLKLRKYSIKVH

GFP-C8orf4 = target: T2, GFP-C8orf4 (UniProt Q9NR00); assay: co-IP; Various N2ICD truncation constructs co-transfected with GFP-C8orf4 for domain mapping
T2 sequence: T1 sequence

Row | Substance | binding [1] | binding (GFP-C8orf4)
1 | Gal4-activating domain (AD) fused N2ICD (from UniProt Q04721) (domain or fragment) | binds | –
2 | ankyrin repeat domain of NOTCH2 (N2ICD truncation construct) (from UniProt Q04721) (domain or fragment) | – | binds

No constants are given. Whether binding was seen depends on the method and setting. A result given as binding can be weak or reduced; the word gives no strength. Tags and fused reporters may be left off the sequences shown. For some assays here: Binding seen in cells or lysates may run through a third protein.
